{"source": "PubChem BioAssay AID540276", "about": "(National Center for Advancing Translational Sciences (NCATS), 2011)", "note": "Screen size: about 300,000 compounds; about 5,400 (1.8%) were called active. The shares of active, inactive and inconclusive entries below differ from those in the screen. Calls come from the whole dose curve; tested in HEK293 cells. Where the call is inconclusive, the potency comes from a doubtful curve fit. Potency is the fitted concentration of half-maximal effect."}
{"experiment": "qHTS for inhibitors of binding or entry into cells for Marburg Virus", "conditions": "Marburg virus pseudotyped entry inhibition, cell reporter; series mostly up to 37.8 µM"}
{"compound": "O=C(NCCN1CCOCC1)c1ccc2ccccc2c1", "Potency": "inconclusive: 12.6 µM [activator, partial curve]"}
{"compound": "COc1ccccc1OCCNC(=O)c1ccccc1C", "Potency": "inconclusive: 32.6 µM [activator, single point]"}
{"compound": "CC(C)Cn1c(=O)c2ccccc2n2c(CCC(=O)Nc3ccc(F)c(F)c3)nnc12", "Potency": "inconclusive: 7.08 µM [inhibitor, partial curve, poor fit]"}
{"compound": "COc1ccc(-c2cn3c(n2)CCC3)cc1", "Potency": "inactive"}
{"compound": "CCOc1ccccc1NC(=O)CSc1nc(=O)n(Cc2ccncc2)c2c1CCC2", "Potency": "inactive"}
{"compound": "Cc1cc(C(=O)NNC(=O)Nc2ccccc2)no1", "Potency": "inactive"}
{"compound": "CCCSc1ncc(Cl)c(C(=O)Nc2c(C(=O)c3ccc(F)cc3)oc3ccccc23)n1", "Potency": "inactive"}
{"compound": "CC1CC2(CC(C)(C(=O)CSc3n[nH]c(-c4ccccc4Cl)n3)OC2=O)C(=O)O1", "note": "(stereo unspecified)", "Potency": "inconclusive: 0.651 µM [inhibitor, full curve, poor fit]"}
{"compound": "C/C(=N\\Nc1ccccc1)c1c(O)n(C)c(=O)n(C)c1=O", "Potency": "inconclusive: 1.26 µM [activator, single point]"}
{"compound": "O=C(Cn1ccc2ccccc2c1=O)N1CCN(c2cccc(Cl)c2)CC1", "Potency": "inconclusive: 1.26 µM [activator, full curve, poor fit]"}
{"compound": "COc1ccc(C(=O)Nc2ccc(NC(=O)c3ccccc3)cc2)cc1S(=O)(=O)N1CCOCC1", "Potency": "inconclusive: 25.1 µM [inhibitor, single point]"}
{"compound": "COc1ccc2[nH]c3c(=O)n(CCCC(=O)NC4CCCCC4C)c(=S)[nH]c3c2c1", "note": "(stereo unspecified)", "Potency": "inconclusive: 17.8 µM [inhibitor, single point]"}
{"compound": "CSc1cccc(CNC(=O)CC2C(=O)NCCN2CC(C)(C)C)c1", "note": "(stereo unspecified)", "Potency": "inconclusive: 35.5 µM [inhibitor, single point]"}
{"compound": "Cc1ccc(Nc2sc(C(=O)c3ccccc3)c(N)c2S(=O)(=O)c2ccccc2)c(C)c1", "Potency": "inconclusive: 35.5 µM [inhibitor, single point]"}
{"compound": "O=C(CN1c2ccccc2Sc2ccccc21)N/N=C/c1ccc([N+](=O)[O-])cc1", "Potency": "active: 8.91 µM"}
{"compound": "CN(C)S(=O)(=O)c1ccc(C(=O)Nc2ccc(CN3CCCC3)cc2)cc1", "Potency": "inactive"}
{"compound": "Cc1nc(-c2cnn(-c3ccccc3)c2)c2cc(C)oc2n1", "Potency": "inconclusive: 5.62 µM [activator, single point]"}
{"compound": "Cc1c(CCC(=O)NCCCn2ccnc2)c(=O)oc2cc3occ(C(C)(C)C)c3cc12", "Potency": "inactive"}
{"compound": "CC(=O)N1c2c(cc(Br)cc2S(=O)(=O)NCc2ccccc2)CC1C", "note": "(stereo unspecified)", "Potency": "inconclusive: 0.562 µM [inhibitor, full curve, poor fit]"}
{"compound": "CC1Sc2ccc(S(=O)(=O)CCC(=O)N3CCCCC3)cc2NC1=O", "note": "(stereo unspecified)", "Potency": "inactive"}
{"compound": "Cc1cccc(NC(=O)C2(C)Cc3ccccc3C(=O)O2)c1", "note": "(stereo unspecified)", "Potency": "inconclusive: 5.01 µM [inhibitor, single point]"}
{"compound": "CCC(C)(C)NC(=O)C(OC(=O)c1ccco1)c1ccccc1OC", "note": "(stereo unspecified)", "Potency": "inactive"}
{"compound": "Cc1ccc(NC(=O)C(=O)NCCCN2CCOCC2)cc1C", "Potency": "inactive"}
{"compound": "Cc1ccc2nc3c(cc(S(=O)(=O)c4ccccc4)c(=N)n3Cc3ccco3)c(=O)n2c1", "Potency": "inconclusive: 1 µM [inhibitor, full curve, poor fit]"}
{"compound": "CC(=O)Nc1ccc2nc(SCCOc3ccccc3)sc2c1", "Potency": "inactive"}
{"compound": "Cc1ccc2oc(=O)c3cc(C(=O)NCCCN4CC(C)CC(C)C4)sc3c2c1", "note": "(stereo unspecified)", "Potency": "inconclusive: 35.5 µM [inhibitor, single point]"}
{"compound": "COc1ccc2c(c1)c1nc3ccccc3nc1n2CCn1c(=O)oc2ccccc21", "Potency": "inconclusive: 6.51 µM [inhibitor, single point]"}
{"compound": "COc1cc(C2C(C#N)=C(N)Oc3n[nH]c(C)c32)ccc1OC(=O)c1ccccc1", "note": "(stereo unspecified)", "Potency": "inactive"}
{"compound": "Cc1nn(-c2ccccc2)c(Cl)c1/C=N/NC(=O)OC(C)(C)C", "Potency": "inconclusive: 6.31 µM [inhibitor, partial curve, poor fit]"}
{"compound": "c1ccc(-c2csc(-c3ccncc3)n2)cc1", "Potency": "inactive"}
{"compound": "FC(F)(F)c1ccnc(NCc2ccc(Cl)cc2)n1", "Potency": "inconclusive: 35.5 µM [inhibitor, single point]"}
{"compound": "CCOC(=O)c1ccc(COC(=O)c2ccc(-c3nnc(-c4ccccc4)o3)cc2)o1", "Potency": "inconclusive: 0.708 µM [activator, partial curve, poor fit]"}
{"compound": "CCOCCCNc1ncnc2c1[nH]c1ccccc12", "Potency": "inconclusive: 2.82 µM [inhibitor, partial curve, poor fit]"}
{"compound": "C/C(=N\\Nc1c(Cl)c(Cl)nc(C(=O)O)c1Cl)c1ccc(O)cc1", "Potency": "inconclusive: 3.55 µM [activator, single point]"}
{"compound": "O=C(O)c1cccc(NS(=O)(=O)c2ccc(C3CCCCC3)cc2)c1", "Potency": "inconclusive: 35.5 µM [inhibitor, single point]"}
{"compound": "CC(C)C(NC(=O)c1ccc(S(=O)(=O)N2CCOCC2)cc1)c1nc2ccccc2[nH]1", "note": "(stereo unspecified)", "Potency": "inactive"}
{"compound": "COc1cccc(NC(=O)Cn2c(=O)n(CC3CCCO3)c(=O)c3ccccc32)c1", "note": "(stereo unspecified)", "Potency": "inactive"}
{"compound": "CN(CCc1ccccn1)C(=O)Nc1ccc(F)cc1", "Potency": "inactive"}
{"compound": "Cc1nn(CCc2n[nH]c(=S)n2-c2ccc(F)cc2)c(C)c1[N+](=O)[O-]", "Potency": "inactive"}
{"compound": "CCN1CCC(CNCc2cn(-c3ccc(OC)cc3)nc2-c2ccccc2Cl)C1", "note": "(stereo unspecified)", "Potency": "active: 3.98 µM"}
{"compound": "O=C(Oc1cccc(C(=O)N2CCOCC2)c1)c1ccc(Br)cc1", "Potency": "inconclusive: 16.4 µM [activator, partial curve, poor fit]"}
{"compound": "Cc1cccc(N2CCN(C(=O)c3ccc(N4CCCC4=O)cc3)CC2)c1C", "Potency": "inconclusive: 31.6 µM [inhibitor, partial curve, poor fit]"}
{"compound": "O=c1[nH]c(CS(=O)(=O)c2ccccc2)nc2ccccc12", "Potency": "inactive"}
{"compound": "O=C(c1ccc(Oc2ccc([N+](=O)[O-])cc2Cl)cc1)N1CCCC1", "Potency": "inactive"}
{"compound": "O=c1c2ccccc2c(=O)n2n1Cc1ccccc1C2", "Potency": "inconclusive: 35.5 µM [activator, single point]"}
{"compound": "Cn1cc(CNC(=O)C2CCCCC2)cn1", "Potency": "inactive"}
{"compound": "COc1ccc(Cl)cc1NC(=O)CSc1nc(-c2ccccc2)c2ccccc2n1", "Potency": "inactive"}
{"compound": "CN(C)c1ccc(/C=N/NC(=O)c2ccn(C)n2)cc1", "Potency": "inactive"}
{"compound": "N#C/C(=C/C=C/c1ccccc1)C(=O)Nc1ccccc1", "Potency": "active: 2.91 µM"}
{"compound": "CCOC(=O)CCNCc1ccc(F)cc1", "Potency": "inactive"}
{"compound": "O=C(N/N=C/c1ccccn1)c1cc(-c2ccc3ccccc3c2)n[nH]1", "Potency": "inconclusive: 35.5 µM [inhibitor, single point]"}
{"compound": "CCc1ccc(S(=O)(=O)N2c3ccc(C)cc3C3CN(C)CCC32)cc1", "note": "(stereo unspecified)", "Potency": "inconclusive: 12.6 µM [inhibitor, partial curve, poor fit]"}
{"compound": "O=C(Cn1[nH]c(=O)c2ccccc2c1=O)NC1CCCCCC1", "Potency": "inactive"}
{"compound": "CC/C(=N\\NC(=O)c1cc(C)nc2ccccc12)c1ccc(C)s1", "Potency": "inconclusive: 2.82 µM [inhibitor, full curve]"}
{"compound": "O=C(Nc1nc2ccccc2s1)c1cc(-c2ccccc2)nn1-c1ccccc1", "Potency": "inconclusive: 15.8 µM [inhibitor, single point]"}
{"compound": "COc1ccc(CC(=O)N(CC2CCCO2)c2nc3ccccc3s2)cc1", "note": "(stereo unspecified)", "Potency": "inconclusive: 35.5 µM [activator, single point]"}
